Data source: PubChem BioAssay AID1259425 (University of Nebraska Medical Center, 2018)
The deposit covers about 14,000 reagents; below is a random part of them. Reagent sequences are not shown. Not given: the time to read-out.

Aim: 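Compare each knockdown with KSR1 silencing using changes in marker transcripts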 (primary screen)
Cell system: HCT116 human colon cancer cells
Reagents: siRNA pool against human genes, 50 nM siRNA
Measurement: 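mRNA of six signature genes measured together by branched-DNA assay after 50 nM siRNA pool, blank removed, divided by geometric mean of two housekeeping genes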
Scale: BNIP3L mRNA: higher = more BNIP3L transcript after knockdown; NDRG1 mRNA: higher = more NDRG1 transcript after knockdown; BNIP3 mRNA: higher = more BNIP3 transcript after knockdown; ALDOC mRNA: higher = more ALDOC transcript after knockdown; ACSL5 mRNA: higher = more ACSL5 transcript after knockdown

The opening 2 records, to show the layout:
gene | BNIP3L mRNA, set 1 | NDRG1 mRNA, set 1 | BNIP3 mRNA, set 1 | ALDOC mRNA, set 1 | ACSL5 mRNA, set 1
AKR1C1 (aldo-keto reductase family 1 member C1) | 0.0794 | 0.226 | 0.21 | 0.0459 | 0.102
ENTPD1 (ectonucleoside triphosphate diphosphohydrolase 1) | 0.126 | 0.0784 | 0.238 | 0.0748 | 0.209

Main list, from the start:
gene | BNIP3L mRNA, set 1 | NDRG1 mRNA, set 1 | BNIP3 mRNA, set 1 | ALDOC mRNA, set 1 | ACSL5 mRNA, set 1
AKR1C1 (aldo-keto reductase family 1 member C1) | 0.0794 | 0.226 | 0.21 | 0.0459 | 0.102
ENTPD1 (ectonucleoside triphosphate diphosphohydrolase 1) | 0.126 | 0.0784 | 0.238 | 0.0748 | 0.209
VEGFA (vascular endothelial growth factor A) | 0.1 | 0.0632 | 0.242 | 0.027 | 0.124
DAGLA (diacylglycerol lipase alpha) | 0.109 | 0.391 | 0.188 | 0.0371 | 0.101
WTAP (WT1 associated protein) | 0.189 | 1.7 | 0.318 | 0.0519 | 0.296
PLAGL2 (PLAG1 like zinc finger 2) | 0.194 | 0.602 | 0.256 | 0.0171 | 0.145
IL22RA1 (interleukin 22 receptor subunit alpha 1) | 0.0988 | 0.0824 | 0.293 | 0.0248 | 0.12
PGGHG (protein-glucosylgalactosylhydroxylysine glucosidase) | 0.155 | 0.452 | 0.304 | 0.0132 | 0.19
CPSF6 (cleavage and polyadenylation specific factor 6) | 0.0754 | 1.03 | 0.426 | 0.029 | 0.233
SELENOS (selenoprotein S) | 0.0393 | 0.114 | 0.116 | 0.022 | 0.147
MYBL1 (MYB proto-oncogene like 1) | 0.072 | 0.111 | 0.22 | 0.00452 | 0.209
LOXL2 (lysyl oxidase like 2) | 0.0931 | 0.365 | 0.289 | 0.0559 | 0.139
IL7R (interleukin 7 receptor) | 0.0885 | 0.128 | 0.221 | 0.0503 | 0.0963
UBE2D1 (ubiquitin conjugating enzyme E2 D1) | 0.0804 | 0.198 | 0.312 | 0.0214 | 0.162
ERN2 (endoplasmic reticulum to nucleus signaling 2) | 0.112 | 0.13 | 0.341 | 0.0308 | 0.0993
GABRA6 (gamma-aminobutyric acid type A receptor subunit alpha6) | 0.096 | 0.198 | 0.246 | 0.0145 | 0.237
ZNF341 (zinc finger protein 341) | 0.135 | 0.212 | 0.295 | 0.0663 | 0.221
ATIC | 0.0493 | 0.109 | 0.285 | 0.0198 | 0.175
F13A1 (coagulation factor XIII A chain) | 0.138 | 0.19 | 0.378 | 0.0396 | 0.152
ARL4A (ARF like GTPase 4A) | 0.119 | 0.072 | 0.296 | 0.0414 | 0.081
